Data published in paper PMC3933784.
Results are given in words; binding and its absence hold for the method and conditions named. Some binding calls cover weakened binding; strength is not graded here.

Target: plant actin 7 (UniProt P53492)
Experiment: two-hybrid; yeast two-hybrid; told as 'Minina et al., 2009 and unpublished data'; bait and prey not told

B1: At-4/1 protein (protein, UniProt Q1PE49 1-247)
chain: MAATSDEQMNLLLSSFDQIYEDFKIGLNEINVYRSKSNVESSRREVLEISNKNLKEENERLKKLYTESLNNFADQLEHRTKCHSLKEELKRVNDENKSKEHEHRNALESLRQKHVTKVEELEYKIRSLLVEKATNDMVIDRLRQDLTANKSHIQAMSKKLDRVVTEVECKYELEIQDLKDCLLMEQAEKNDISNKLQSLQKELLISRTSIAEKQRDTTSNRQVETLKQKLMKLRKENEILKRKLSSS
For B1, the binding was “binds”.
